Test results from patent US20250057944A1, “OLIGOSACCHARIDE COMPLEXES AND USES” (BioNTech SE, priority 2021, published 2025).
Some of these results come from one statement about several compounds together.

Test: Hydrodynamic diameter of complexes by dynamic light scattering
Format: physicochemical
Details: N/P 6 (FIG. 7A)
Procedure: Sizes of complexes described in the present examples were analyzed by DynaPro PlateReader II, using dynamic light scattering (DLS) for calculating the hydrodynamic diameter of complexes. […] Ten acquisitions are recorded per well, each lasting 5 seconds.

SMILES | Size of complexes with modRNA
CCCCCCCCCC(=O)OC1C(OC(=O)CCCCCCCCC)[C@H](OC(=O)CCCCCCCCC)C(CSCCNC(=S)NCCN(CCNC(C)=O)CCNC(C)=O)O[C@@H]1O[C@H]1OC(CSCCNC(=S)NCCN(CCNC(C)=O)CCNC(C)=O)[C@@H](OC(=O)CCCCCCCCC)C(OC(=O)CCCCCCCCC)C1OC(=O)CCCCCCCCC (some centres unmarked) [JLF131] | over 100 nm
CCCCCCCCCC(=O)OC1C(OC(=O)CCCCCCCCC)[C@H](OC(=O)CCCCCCCCC)C(CSCCNC(=S)NCCN2CCOCC2)O[C@@H]1O[C@H]1OC(CSCCNC(=S)NCCN2CCOCC2)[C@@H](OC(=O)CCCCCCCCC)C(OC(=O)CCCCCCCCC)C1OC(=O)CCCCCCCCC (some centres unmarked) [JLF99] | over 100 nm
